# Test results as given in patent publication US7452865B2, “Antagonistic analogs of GH RH (2003)” (The Administrare's of the Tulane Educational Fund, priority 2004, dated 2008).
# Some of these results come from one statement about several compounds together. Some compounds share one range, which may span the group rather than tell each member.
# Experiments:
# [1] = tested on: PC-3 human prostate cancer xenografts; assay: PC-3 xenografts in nude mice, Experiment 2: tumor growth; type: in vivo; settings: 5 μg/day
# Protocol: Male nude mice were implanted s.c. with 3 mm^3 pieces of PC-3 human hormone-independent prostate cancer tissue on both flanks. When tumors reached a volume of approx. 50 mm^3, the mice were divided into 5 experimental groups with 7 to 8 animals in each group and received single daily injections for 28 days as follows: 1. Control (vehicle solution); 2. JV-1-38 (10 μg/day s.c.); 3 Peptide 31 (10 μg/day s.c.); 4. Peptide 67 (10 μg/day s.c.); 5. Peptide 62 (10 μg/day s.c.). Tumor volumes were measured twice a week. The experiment was ended on day 29 by sacrificing the mice under Isoflurane anesthesia. Resulting tumors were cleaned, weighed, and snap-frozen until further analyses. Trunk blood was collected from the abdominal aorta and serum was separated for RIA measurement of IGF-I. Statistical analyses of the measurement results were done by two-tailed t-test; data are presented as the means±S.E.
# Experiment 2 was similar to Experiment 1, with the difference that Experiment 2 was started when PC-3 tumors had grown to approximately 30 mm^3 in volume. At this time, the animals were divided into 8 experimental groups with 8 animals in each group, and received single daily injections for 28 days as follows. 1. Control (vehicle solution); 2. JV-1-38 (10 μg/day s.c.); 3. Peptide 46 (5 μg/day: s.c.); 4. Peptide 77 (5 μg/day s.c); 5. Peptide 76 (5 μg/day s.c.); 6. […]
# IGF-I = assay: PC-3 xenografts, Experiment 2: serum IGF-I (RIA); type: in vivo, nude mice; settings: 5 μg/day s.c., 28 days, vs control
# Text: For the measurement of GH and IGF-I levels in the serum, as well as IGF-I and IGF-II concentrations in the cytosol fraction of tumors, blood samples and tumor samples were collected and processed as described (Braczkowski R, Schally A V, Plonowski A, Varga J L, Groot K, Krupa M, Armatis P, Cancer 95: 1735-1745, 2002), hereby incorporated by reference. Briefly, blood samples are centrifuged to separate the serum, tumors are homogenized and centrifuged to separate the cytosol fraction. Serum GH is then measured by the double-antibody RIA method. Before measurement by RIA, IGF-I and IGF-II are extracted from serum and cytosol fractions using an acid-ethanol cryoprecipitation method that eliminates most of the IGF binding proteins, which can interfere with the RIA. IGF-I concentration is measured by RIA using IGF-I as a standard and goat anti-IGF-I antibody (both from DSL Inc., Webster, Tex.). IGF-II concentration is measured by RIA using human recombinant IGF-II (Bachem) as a standard and anti-IGF-II monoclonal antibody (Amano International Enzyme, Troy, Va.).
# Male nude mice were implanted s.c. with 3 mm^3 pieces of PC-3 human hormone-independent prostate cancer tissue on both flanks. […] Tumor volumes were measured twice a week. […]
substance,measurement,setting,value
"[CH3(CH2)6CO-Tyr^1, D-Arg^2, Phe(pCl)^6, Cit^8, His^9, Tyr(Et)^10, His^11, Abu^15, Nle^27, D-Arg^28, Har^29]hGH-RH(1-29)NH2 [Peptide 79]",decrease of the tumor volumes and tumor weights of PC-3 cancers,[1]; span over the six peptides,20-64%
same,increase of the tumor volume doubling times,[1]; upper limit over the six peptides,up to 101 % of the control value
same,Serum IGF-I (% inhibition),IGF-I,31%-42%
